The record followed here is patent US20140271734A1, “BILE ACID RECYCLING INHIBITORS FOR TREATMENT OF BARRETT'S ESOPHAGUS AND GASTROESOPHAGEAL REFLUX DISEASE” (LUMENA PHARMACEUTICALS, INC., priority 2013, published 2014).

This data set can be described thus: Fecal weight in rats, LUM001 Q.D. for four days. In kind it is in vivo, Wistar rats.

As for `CCCCC1(CCCC)CS(=O)(=O)c2ccc(N(C)C)cc2[C@@H](c2ccc(OCc3ccc(C[N+]45CCN(CC4)CC5)cc3)cc2)[C@H]1O` [LUM001], the “Fecal Weight” value (Q.D. 0.0006 mg/kg/day) is 17.1 gm/48 hr; the “Fecal Weight” value (Q.D. 0.002 mg/kg/day) is recorded as 16.3 gm/48 hr; the “Fecal Weight” value (Q.D. 0.003 mg/kg/day) worked out at 16.2 gm/48 hr; the “Fecal Weight” value (Q.D. 0.008 mg/kg/day) came to 17.3 gm/48 hr; the “Fecal Weight” value (Q.D. 0.016 mg/kg/day) amounted to 17.7 gm/48 hr; the “Fecal Weight” value (Q.D. 0.04 mg/kg/day) was found to be 14.9 gm/48 hr. Moreover, the “Fecal Weight” value (Q.D. 0.08 mg/kg/day) came to 16.8 gm/48 hr, the “Fecal Weight” value (Q.D. 0.2 mg/kg/day) was determined as 24.4 gm/48 hr, the “Fecal Weight” value (Q.D. 0.4 mg/kg/day) is reported as 17.9 gm/48 hr and the “Fecal Weight” value (Q.D. 2 mg/kg/day) amounted to 18.0 gm/48 hr.
